These are yes or no findings as the source states them, for the method shown. In cells and extracts the contact can be indirect. Some binding calls cover weakened binding; strength is not graded here. For some assays here: Where a sequence is shown, tags or fusion partners need not be part of it.
Assays:
[1] = target: T1, MIEF2-V5 (UniProt Q96C03); assay: co-IP; 293T lines stably expressing MIEF1-V5 or MIEF2-V5, living cells treated with 1 mM DSS for 3 h (or DMSO), lysis in 1% NP-40, anti-V5 agarose beads 2 h at room temperature; blot for endogenous Drp1
T1 sequence: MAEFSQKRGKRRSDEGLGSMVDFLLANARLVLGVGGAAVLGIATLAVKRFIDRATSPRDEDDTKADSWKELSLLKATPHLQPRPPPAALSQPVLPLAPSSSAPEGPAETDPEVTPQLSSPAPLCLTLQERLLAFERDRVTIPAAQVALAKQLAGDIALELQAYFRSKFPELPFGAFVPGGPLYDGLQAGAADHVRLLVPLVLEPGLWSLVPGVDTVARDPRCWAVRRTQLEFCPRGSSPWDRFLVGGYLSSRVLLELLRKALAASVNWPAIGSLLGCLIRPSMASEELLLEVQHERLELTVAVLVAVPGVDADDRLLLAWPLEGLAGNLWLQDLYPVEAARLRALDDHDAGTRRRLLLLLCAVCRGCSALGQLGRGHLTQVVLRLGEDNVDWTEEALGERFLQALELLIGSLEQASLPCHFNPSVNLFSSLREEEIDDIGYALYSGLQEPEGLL

The chains behind the UniProt entries cited, without tags or fusion partners. Where a name states a change or a piece, a line headed by the entry shows the natural chain unless it says otherwise. A line that says so, or that is headed by a name, gives the form on record, which may keep a tag or linker.
UniProt Q9NQG6: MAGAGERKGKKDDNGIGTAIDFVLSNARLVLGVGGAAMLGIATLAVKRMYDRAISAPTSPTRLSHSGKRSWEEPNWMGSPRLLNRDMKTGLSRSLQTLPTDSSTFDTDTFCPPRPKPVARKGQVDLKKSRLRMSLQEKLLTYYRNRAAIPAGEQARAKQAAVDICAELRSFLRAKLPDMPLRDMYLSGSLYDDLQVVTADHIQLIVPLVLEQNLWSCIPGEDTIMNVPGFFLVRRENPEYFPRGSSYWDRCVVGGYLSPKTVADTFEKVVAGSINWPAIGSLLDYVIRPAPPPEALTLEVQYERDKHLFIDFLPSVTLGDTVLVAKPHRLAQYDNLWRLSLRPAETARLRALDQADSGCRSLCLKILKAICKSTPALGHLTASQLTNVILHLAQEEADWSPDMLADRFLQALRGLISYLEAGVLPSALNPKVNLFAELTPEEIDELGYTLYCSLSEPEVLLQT
UniProt O00429: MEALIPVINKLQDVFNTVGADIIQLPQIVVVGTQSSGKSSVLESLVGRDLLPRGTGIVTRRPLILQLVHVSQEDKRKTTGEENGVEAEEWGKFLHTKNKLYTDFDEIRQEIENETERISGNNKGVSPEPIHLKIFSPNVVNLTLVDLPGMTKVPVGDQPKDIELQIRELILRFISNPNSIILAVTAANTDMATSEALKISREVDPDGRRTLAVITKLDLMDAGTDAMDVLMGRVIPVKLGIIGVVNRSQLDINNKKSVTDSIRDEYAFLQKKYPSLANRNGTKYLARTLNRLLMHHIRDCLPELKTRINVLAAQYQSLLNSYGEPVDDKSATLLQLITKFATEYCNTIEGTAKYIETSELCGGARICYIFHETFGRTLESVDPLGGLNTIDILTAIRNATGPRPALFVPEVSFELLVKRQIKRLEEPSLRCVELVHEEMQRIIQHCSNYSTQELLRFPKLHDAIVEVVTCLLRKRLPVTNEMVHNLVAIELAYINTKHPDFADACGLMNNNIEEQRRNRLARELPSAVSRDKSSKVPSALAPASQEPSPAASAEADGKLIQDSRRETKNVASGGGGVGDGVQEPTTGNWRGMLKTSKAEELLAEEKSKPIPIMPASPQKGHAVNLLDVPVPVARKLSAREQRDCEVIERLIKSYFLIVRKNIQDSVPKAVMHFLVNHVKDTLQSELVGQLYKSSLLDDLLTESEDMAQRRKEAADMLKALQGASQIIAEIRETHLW
untagged Drp1-4A (O00429, form named): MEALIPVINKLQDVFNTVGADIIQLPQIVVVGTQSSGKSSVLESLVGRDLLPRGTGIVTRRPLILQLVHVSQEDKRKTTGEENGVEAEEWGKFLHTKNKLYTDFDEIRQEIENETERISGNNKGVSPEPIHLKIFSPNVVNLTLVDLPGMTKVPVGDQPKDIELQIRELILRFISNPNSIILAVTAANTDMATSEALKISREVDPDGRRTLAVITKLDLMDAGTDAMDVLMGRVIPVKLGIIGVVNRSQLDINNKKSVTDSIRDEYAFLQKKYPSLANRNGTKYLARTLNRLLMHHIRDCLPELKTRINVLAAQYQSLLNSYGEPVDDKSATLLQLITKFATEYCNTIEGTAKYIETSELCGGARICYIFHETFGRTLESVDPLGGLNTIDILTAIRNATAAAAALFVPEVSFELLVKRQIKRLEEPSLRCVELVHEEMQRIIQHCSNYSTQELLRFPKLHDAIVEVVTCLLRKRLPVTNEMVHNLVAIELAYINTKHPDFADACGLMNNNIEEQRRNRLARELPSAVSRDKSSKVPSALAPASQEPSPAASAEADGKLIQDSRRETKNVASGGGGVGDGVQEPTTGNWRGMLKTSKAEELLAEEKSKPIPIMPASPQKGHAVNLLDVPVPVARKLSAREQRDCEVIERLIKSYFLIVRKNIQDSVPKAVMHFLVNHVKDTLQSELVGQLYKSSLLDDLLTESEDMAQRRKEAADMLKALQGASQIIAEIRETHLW

[2] = target: MIEF1-V5 (UniProt Q9NQG6); assay: as above
[3] = target: T1, MIEF2-V5; assay: co-IP; Drp1-/- 293T cells co-transfected with Drp1-WT or a Drp1 mutant and MIEF1-V5, MIEF2-V5 or Myc-Mff; in vivo cross-linking with 1% formaldehyde for 10 min; lysis in 1% NP-40; anti-V5 or anti-Myc agarose beads 2 h at room temperature; Western blot
[4] = target: MIEF1-V5 (UniProt Q9NQG6); assay: as above

Substance | binding [1] | binding [2] | binding [3] | binding [4]
endogenous Drp1 in 293T cells (from UniProt O00429 1-736) | binds | binds | – | –
untagged Drp1-A395D (from UniProt O00429 1-736) | – | – | binds | binds
untagged Drp1-D218N (from UniProt O00429 1-736) | – | – | binds | binds
untagged Drp1-Q34A (from UniProt O00429 1-736) | – | – | binds | binds

Second part, the substance after the results:

binding [1] | binding [2] | binding [3] | binding [4] | Substance
– | – | binds | binds | untagged Drp1-4A (from UniProt O00429 1-736)
– | – | binds | binds | untagged Drp1-M482D (from UniProt O00429 1-736)
– | – | binds | binds | untagged wild-type Drp1 (Drp1-WT) (from UniProt O00429 1-736)

Source: article PMC8602864
